# Values from PubChem BioAssay AID1159584 (Peter MacCallum Cancer Centre, 2016).
# Test: 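Knock-downs that harm CDH1-null cells more than parental MCF10A cells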 (primary screen)
# Cells: human MCF10A breast epithelial cells, parental and CDH1-null
# Reagents: siRNA against human genes
# Detection: 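ATP luminescence (CellTiter-Glo) viability per line relative to mean mock wells over all plates, and the ratio of CDH1-null to parental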
# Reading the numbers: CDH1-null / parental viability ratio: higher = CDH1-null cells survive relatively better than parental; CDH1-null viability vs mock: higher = more viable CDH1-null cells
# Here is a random part of about 18,000 reagents tested. Further read-outs or replicates are left out here. Not stated in the record: the amount of reagent, the time to read-out.
gene,CDH1-null / parental viability ratio,CDH1-null viability vs mock (fraction of mock)
PRR22 (proline rich 22),0.96,0.74
DEFB130A (defensin beta 130A),1.13,0.62
TMEM63C (transmembrane protein 63C),0.88,0.58
ERGIC3 (ERGIC and golgi 3),1.03,0.72
DNASE2B (deoxyribonuclease 2 beta),0.95,0.91
CDIP1 (cell death inducing p53 target 1),1.11,0.97
AQP4 (aquaporin 4),1.14,0.74
PHF8 (PHD finger protein 8),1.02,0.82
TCHP (trichoplein keratin filament binding),1.05,1.16
TMF1 (TATA element modulatory factor 1),0.94,0.58
"B3GALT2 (beta-1,3-galactosyltransferase 2)",1.21,1.04
TMEM94 (transmembrane protein 94),1.83,0.44
TMEM35A (transmembrane protein 35A),0.62,0.44
PHF11 (PHD finger protein 11),0.94,0.92
SERPINA5 (serpin family A member 5),0.99,0.85
MICU2 (mitochondrial calcium uptake 2),0.92,0.76
MGME1 (mitochondrial genome maintenance exonuclease 1),0.89,0.8
NEK1 (NIMA related kinase 1),0.78,0.58
NKAP (NFKB activating protein),1.47,0.78
GPR63 (G protein-coupled receptor 63),0.72,0.77
SF3A3 (splicing factor 3a subunit 3),1.36,0.38
MYL9 (myosin light chain 9),1.29,1.06
ZNF770 (zinc finger protein 770),1.03,0.66
CCNT1 (cyclin T1),0.94,0.75
S100A9 (S100 calcium binding protein A9),1.2,0.96
PDK3 (pyruvate dehydrogenase kinase 3),1.11,0.82
"PLAT (plasminogen activator, tissue type)",1.36,0.61
PSG6 (pregnancy specific beta-1-glycoprotein 6),1.33,1.04
NFATC2 (nuclear factor of activated T cells 2),0.88,0.64
E2F6 (E2F transcription factor 6),1.05,0.99
DIO3 (iodothyronine deiodinase 3),0.84,0.61
SEMA4C (semaphorin 4C),0.94,0.95
LMO3 (LIM domain only 3),0.88,1.12
LPAR3 (lysophosphatidic acid receptor 3),1.55,0.9
SERGEF (secretion regulating guanine nucleotide exchange factor),1.24,0.84
ABI3 (ABI family member 3),1.2,1.02
THOC3 (THO complex subunit 3),1.07,0.73
OLIG2 (oligodendrocyte transcription factor 2),0.92,0.74
NOB1 (NIN1 (RPN12) binding protein 1 homolog),1.04,0.84
CATSPERD (catsper channel auxiliary subunit delta),0.97,0.6
ARMH3 (armadillo like helical domain containing 3),0.97,0.68
COQ8B (coenzyme Q8B),0.64,0.46
FAM111B (FAM111 trypsin like peptidase B),1.04,0.96
GRN (granulin precursor),0.89,0.82
HYOU1 (hypoxia up-regulated 1),0.98,1.12
CDK5RAP3 (CDK5 regulatory subunit associated protein 3),1.25,0.45
NUMBL (NUMB like endocytic adaptor protein),1.09,0.5
N4BP1 (NEDD4 binding protein 1),1.04,0.98
HOXB1 (homeobox B1),0.98,1.03
TFDP1 (transcription factor Dp-1),1.25,0.86
MLEC (malectin),1.09,0.5
DYRK3 (dual specificity tyrosine phosphorylation regulated kinase 3),1.03,1.22
FOXR2 (forkhead box R2),0.97,0.85
ZNF157 (zinc finger protein 157),1.3,0.83
PRRC2A (proline rich coiled-coil 2A),1.11,0.89
PTPA (protein phosphatase 2 phosphatase activator),1.46,0.82
SCIMP (SLP adaptor and CSK interacting membrane protein),1.15,0.6
KRTAP5-9 (keratin associated protein 5-9),0.9,0.88
CSNK1G2-AS1 (CSNK1G2 antisense RNA 1),0.94,0.68
MOSPD1 (motile sperm domain containing 1),1.08,0.82
NR5A1 (nuclear receptor subfamily 5 group A member 1),0.95,0.7
ITGB6 (integrin subunit beta 6),0.81,0.78
POR (cytochrome p450 oxidoreductase),0.95,0.84
IYD (iodotyrosine deiodinase),1.04,0.96
RUSF1 (RUS family member 1),1.07,0.78
SLC38A9,1.15,1.05
ASB12 (ankyrin repeat and SOCS box containing 12),1.06,0.88
HNRNPA3 (heterogeneous nuclear ribonucleoprotein A3),0.74,0.57
ADAM23 (ADAM metallopeptidase domain 23),1.25,0.7
NFASC (neurofascin),1.01,0.83
IFT70A (intraflagellar transport 70A),1,0.5
TIMCC (TIM double twin CX3C motif chaperone),0.8,0.56
TMEM176B (transmembrane protein 176B),0.99,0.89
STK17A (serine/threonine kinase 17a),0.73,0.51
SLC61A1,0.9,0.78
C11orf42 (chromosome 11 open reading frame 42),0.89,0.5
TRPC1,0.98,0.63
NCOA3 (nuclear receptor coactivator 3),0.9,0.76
GOLPH3 (golgi phosphoprotein 3),1.2,0.36
GPR83 (G protein-coupled receptor 83),0.9,0.84
"NPHS2 (NPHS2 stomatin family member, podocin)",0.84,0.74
GDA (guanine deaminase),1.12,0.84
TBC1D24 (TBC1 domain family member 24),1.19,0.99
ACTRT2 (actin related protein T2),1.06,0.76
ZNF439 (zinc finger protein 439),0.93,0.55
SAMD12 (sterile alpha motif domain containing 12),0.89,0.84
HTR1A (5-hydroxytryptamine receptor 1A),1.76,0.95

Single entries from the list:
FOXR2 (forkhead box R2), CDH1-null viability vs mock (fraction of mock) = 0.85
Result for CDIP1 (cell death inducing p53 target 1) under “CDH1-null viability vs mock (fraction of mock)”: 0.97
Entry for STK17A (serine/threonine kinase 17a) in “CDH1-null viability vs mock (fraction of mock)”: 0.51
CATSPERD (catsper channel auxiliary subunit delta), CDH1-null / parental viability ratio → 0.97
Under “CDH1-null viability vs mock (fraction of mock)”, NFATC2 (nuclear factor of activated T cells 2) is entered as 0.64
For “CDH1-null viability vs mock (fraction of mock)”, SLC61A1 has 0.78
